Data from publication PMC4811540.
Results are given in words; binding and its absence hold for the method and conditions named. In cells and extracts the contact can be indirect. Some binding calls cover weakened binding; strength is not graded here.

Protein sequences, listed by entry. Tags and fused reporters are not part of them. Residues count along the entry.
UniProt P02751, residues 32-2477: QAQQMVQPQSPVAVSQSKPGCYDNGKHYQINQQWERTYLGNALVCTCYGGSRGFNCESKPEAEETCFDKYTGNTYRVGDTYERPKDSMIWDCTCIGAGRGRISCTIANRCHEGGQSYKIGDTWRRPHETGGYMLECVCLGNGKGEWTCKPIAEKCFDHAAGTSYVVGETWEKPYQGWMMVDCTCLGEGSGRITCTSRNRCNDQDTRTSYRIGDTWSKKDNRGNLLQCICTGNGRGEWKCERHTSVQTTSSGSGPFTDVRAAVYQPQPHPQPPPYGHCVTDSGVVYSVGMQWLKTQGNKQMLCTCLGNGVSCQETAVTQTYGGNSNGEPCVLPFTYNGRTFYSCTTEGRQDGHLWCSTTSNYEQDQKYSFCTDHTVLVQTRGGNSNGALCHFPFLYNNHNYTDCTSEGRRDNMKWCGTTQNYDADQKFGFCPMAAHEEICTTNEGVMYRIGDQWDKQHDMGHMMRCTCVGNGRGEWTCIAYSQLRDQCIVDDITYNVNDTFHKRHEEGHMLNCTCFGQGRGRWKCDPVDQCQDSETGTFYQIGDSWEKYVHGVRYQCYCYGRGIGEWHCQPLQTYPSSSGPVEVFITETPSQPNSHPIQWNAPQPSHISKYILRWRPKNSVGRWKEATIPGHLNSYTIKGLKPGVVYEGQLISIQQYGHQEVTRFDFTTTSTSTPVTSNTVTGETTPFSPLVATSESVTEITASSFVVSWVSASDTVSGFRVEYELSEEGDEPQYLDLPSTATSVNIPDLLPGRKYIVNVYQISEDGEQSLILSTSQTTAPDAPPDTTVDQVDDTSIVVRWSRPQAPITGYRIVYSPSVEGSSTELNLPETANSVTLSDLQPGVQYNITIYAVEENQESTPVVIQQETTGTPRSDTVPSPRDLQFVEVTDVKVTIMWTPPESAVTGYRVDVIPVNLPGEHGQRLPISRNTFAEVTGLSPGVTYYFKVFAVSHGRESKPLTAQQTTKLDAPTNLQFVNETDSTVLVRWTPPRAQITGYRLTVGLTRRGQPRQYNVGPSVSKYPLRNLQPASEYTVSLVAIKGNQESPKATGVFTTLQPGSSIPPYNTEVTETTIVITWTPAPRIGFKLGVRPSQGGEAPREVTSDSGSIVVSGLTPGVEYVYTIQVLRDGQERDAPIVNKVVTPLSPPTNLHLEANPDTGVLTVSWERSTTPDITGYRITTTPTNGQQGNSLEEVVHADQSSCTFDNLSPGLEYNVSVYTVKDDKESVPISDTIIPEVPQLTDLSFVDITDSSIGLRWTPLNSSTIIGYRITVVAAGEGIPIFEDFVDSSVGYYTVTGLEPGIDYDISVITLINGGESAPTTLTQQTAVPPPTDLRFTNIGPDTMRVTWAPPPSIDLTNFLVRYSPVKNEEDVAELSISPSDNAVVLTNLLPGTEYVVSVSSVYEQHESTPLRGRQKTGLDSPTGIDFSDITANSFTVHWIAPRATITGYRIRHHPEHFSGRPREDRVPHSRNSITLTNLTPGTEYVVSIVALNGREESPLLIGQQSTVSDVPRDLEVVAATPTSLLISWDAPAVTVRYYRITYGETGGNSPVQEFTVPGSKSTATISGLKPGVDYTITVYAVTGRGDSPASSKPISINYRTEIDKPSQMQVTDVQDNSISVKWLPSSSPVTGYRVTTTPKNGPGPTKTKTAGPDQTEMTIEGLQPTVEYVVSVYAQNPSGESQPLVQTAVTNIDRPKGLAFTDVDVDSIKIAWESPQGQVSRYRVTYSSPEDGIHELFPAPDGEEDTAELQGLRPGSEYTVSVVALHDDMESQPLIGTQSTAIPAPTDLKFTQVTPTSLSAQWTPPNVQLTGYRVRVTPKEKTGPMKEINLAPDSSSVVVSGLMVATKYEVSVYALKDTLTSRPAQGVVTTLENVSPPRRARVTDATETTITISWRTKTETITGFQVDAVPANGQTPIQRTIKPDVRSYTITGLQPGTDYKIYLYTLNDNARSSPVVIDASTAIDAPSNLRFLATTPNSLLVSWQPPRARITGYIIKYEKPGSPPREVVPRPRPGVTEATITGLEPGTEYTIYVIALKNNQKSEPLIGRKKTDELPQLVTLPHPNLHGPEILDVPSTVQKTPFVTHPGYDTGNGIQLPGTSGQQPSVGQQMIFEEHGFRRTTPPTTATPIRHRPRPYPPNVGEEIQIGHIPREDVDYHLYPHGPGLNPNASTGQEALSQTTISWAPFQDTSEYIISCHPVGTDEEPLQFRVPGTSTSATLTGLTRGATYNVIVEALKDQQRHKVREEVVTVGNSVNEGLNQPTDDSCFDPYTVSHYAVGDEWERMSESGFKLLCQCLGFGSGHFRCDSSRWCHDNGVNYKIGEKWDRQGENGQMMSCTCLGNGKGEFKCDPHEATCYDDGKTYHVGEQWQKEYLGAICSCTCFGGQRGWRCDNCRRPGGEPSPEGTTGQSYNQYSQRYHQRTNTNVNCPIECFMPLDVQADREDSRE

Columns and labels:
Assay in all cases: co-IP; endogenous proteins; Huh7 cells stimulated with SeV (MOI = 1) at the indicated times; Co-IP and immunoblot with the indicated antibodies
[1] = target: T1, Endogenous TAB1 (Huh7 cells) (human (endogenous in Huh7)) (UniProt Q15750)
T1 sequence: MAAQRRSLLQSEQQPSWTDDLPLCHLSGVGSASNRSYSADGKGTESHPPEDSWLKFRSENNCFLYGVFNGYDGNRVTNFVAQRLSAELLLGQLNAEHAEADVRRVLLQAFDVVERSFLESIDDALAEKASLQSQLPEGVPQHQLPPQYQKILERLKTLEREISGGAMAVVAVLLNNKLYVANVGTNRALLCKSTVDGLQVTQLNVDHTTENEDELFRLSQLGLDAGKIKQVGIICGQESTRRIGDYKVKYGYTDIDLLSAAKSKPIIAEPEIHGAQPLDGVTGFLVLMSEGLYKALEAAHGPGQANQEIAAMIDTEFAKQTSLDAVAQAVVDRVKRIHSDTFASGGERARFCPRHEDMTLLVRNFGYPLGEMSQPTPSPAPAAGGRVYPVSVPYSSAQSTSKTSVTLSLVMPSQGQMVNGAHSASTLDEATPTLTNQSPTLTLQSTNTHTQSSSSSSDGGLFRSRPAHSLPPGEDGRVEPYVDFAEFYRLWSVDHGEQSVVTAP

[2] = target: T2, Endogenous TAB2 (Huh7 cells) (human (endogenous in Huh7)) (UniProt Q9NYJ8)
T2 sequence: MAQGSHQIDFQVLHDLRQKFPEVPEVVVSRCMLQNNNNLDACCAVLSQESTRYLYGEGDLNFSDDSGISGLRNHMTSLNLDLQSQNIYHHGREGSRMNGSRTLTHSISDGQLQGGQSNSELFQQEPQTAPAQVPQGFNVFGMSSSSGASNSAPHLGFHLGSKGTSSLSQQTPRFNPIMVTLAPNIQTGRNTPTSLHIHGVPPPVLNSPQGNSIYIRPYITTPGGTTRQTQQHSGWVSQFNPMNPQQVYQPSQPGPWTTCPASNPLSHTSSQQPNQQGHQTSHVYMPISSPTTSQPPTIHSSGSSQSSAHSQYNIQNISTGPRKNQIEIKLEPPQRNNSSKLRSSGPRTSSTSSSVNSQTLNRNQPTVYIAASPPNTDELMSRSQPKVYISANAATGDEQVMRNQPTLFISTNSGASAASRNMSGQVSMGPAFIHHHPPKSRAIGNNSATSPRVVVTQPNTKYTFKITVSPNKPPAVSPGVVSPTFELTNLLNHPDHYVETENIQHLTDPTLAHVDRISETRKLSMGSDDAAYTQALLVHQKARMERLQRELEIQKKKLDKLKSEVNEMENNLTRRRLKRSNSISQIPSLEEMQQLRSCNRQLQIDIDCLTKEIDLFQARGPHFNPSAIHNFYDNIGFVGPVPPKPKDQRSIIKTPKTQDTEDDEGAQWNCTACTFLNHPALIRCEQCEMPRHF

[3] = target: T3, Endogenous TAB3 (Huh7 cells) (human (endogenous in Huh7)) (UniProt Q8N5C8)
T3 sequence: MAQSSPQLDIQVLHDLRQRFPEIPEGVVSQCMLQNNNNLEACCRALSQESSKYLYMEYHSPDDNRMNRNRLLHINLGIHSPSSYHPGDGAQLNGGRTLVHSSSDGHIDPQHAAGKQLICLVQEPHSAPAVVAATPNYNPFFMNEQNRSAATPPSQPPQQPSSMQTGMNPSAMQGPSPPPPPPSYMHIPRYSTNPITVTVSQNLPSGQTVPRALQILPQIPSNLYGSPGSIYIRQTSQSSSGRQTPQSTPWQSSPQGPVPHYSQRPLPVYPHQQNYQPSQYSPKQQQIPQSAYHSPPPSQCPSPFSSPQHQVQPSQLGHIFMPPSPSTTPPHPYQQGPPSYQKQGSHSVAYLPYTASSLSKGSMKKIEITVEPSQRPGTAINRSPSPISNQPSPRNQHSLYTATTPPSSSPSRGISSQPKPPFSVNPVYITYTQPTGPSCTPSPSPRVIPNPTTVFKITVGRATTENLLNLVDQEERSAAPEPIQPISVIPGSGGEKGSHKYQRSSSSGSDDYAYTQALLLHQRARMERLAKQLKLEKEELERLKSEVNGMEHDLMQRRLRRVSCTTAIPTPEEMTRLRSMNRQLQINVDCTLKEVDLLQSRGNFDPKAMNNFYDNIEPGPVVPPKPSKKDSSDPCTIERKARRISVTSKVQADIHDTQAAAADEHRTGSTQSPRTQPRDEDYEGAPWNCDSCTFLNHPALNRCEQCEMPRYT

[4] = target: T4, Endogenous TAK1 (Huh7 cells) (human (endogenous in Huh7)) (UniProt O43318)
T4 sequence: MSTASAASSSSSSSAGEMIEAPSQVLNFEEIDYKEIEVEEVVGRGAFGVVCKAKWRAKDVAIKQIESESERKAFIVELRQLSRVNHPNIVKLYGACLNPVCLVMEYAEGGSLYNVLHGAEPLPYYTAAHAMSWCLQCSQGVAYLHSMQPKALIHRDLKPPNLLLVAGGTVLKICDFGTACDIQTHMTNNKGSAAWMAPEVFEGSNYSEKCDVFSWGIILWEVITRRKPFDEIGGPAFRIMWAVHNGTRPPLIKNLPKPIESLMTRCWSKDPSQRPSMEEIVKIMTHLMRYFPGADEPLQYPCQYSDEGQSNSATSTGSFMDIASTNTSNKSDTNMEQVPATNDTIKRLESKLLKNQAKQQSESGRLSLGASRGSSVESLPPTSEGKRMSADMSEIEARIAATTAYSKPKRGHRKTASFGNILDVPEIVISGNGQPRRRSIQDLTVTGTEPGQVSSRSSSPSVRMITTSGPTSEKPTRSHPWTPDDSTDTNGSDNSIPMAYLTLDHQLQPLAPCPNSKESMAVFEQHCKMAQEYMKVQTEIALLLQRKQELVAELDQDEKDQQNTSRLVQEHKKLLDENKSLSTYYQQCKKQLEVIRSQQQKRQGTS

Measured: binding

Endogenous fibronectin (Huh7 cells) (from UniProt P02751 32-2477)
binds: all assays above
